Article PMC5626551
Results are given in words; binding and its absence hold for the method and conditions named. In cells and extracts the contact can be indirect. Here binding means that the protein was enriched with, or labelled near, the bait; the list need not be complete. Values belong to the molecule of their own block, whether it stands above or below them.

Chains of the proteins cited; added tags and fusions are not shown.
UniProt P92177: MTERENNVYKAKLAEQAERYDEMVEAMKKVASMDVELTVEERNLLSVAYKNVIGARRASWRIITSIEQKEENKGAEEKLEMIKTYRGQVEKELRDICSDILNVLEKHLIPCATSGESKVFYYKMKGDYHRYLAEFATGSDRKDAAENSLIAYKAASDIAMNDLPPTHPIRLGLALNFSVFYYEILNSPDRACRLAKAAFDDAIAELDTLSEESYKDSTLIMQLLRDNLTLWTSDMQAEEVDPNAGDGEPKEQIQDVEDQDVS
UniProt Q963E5: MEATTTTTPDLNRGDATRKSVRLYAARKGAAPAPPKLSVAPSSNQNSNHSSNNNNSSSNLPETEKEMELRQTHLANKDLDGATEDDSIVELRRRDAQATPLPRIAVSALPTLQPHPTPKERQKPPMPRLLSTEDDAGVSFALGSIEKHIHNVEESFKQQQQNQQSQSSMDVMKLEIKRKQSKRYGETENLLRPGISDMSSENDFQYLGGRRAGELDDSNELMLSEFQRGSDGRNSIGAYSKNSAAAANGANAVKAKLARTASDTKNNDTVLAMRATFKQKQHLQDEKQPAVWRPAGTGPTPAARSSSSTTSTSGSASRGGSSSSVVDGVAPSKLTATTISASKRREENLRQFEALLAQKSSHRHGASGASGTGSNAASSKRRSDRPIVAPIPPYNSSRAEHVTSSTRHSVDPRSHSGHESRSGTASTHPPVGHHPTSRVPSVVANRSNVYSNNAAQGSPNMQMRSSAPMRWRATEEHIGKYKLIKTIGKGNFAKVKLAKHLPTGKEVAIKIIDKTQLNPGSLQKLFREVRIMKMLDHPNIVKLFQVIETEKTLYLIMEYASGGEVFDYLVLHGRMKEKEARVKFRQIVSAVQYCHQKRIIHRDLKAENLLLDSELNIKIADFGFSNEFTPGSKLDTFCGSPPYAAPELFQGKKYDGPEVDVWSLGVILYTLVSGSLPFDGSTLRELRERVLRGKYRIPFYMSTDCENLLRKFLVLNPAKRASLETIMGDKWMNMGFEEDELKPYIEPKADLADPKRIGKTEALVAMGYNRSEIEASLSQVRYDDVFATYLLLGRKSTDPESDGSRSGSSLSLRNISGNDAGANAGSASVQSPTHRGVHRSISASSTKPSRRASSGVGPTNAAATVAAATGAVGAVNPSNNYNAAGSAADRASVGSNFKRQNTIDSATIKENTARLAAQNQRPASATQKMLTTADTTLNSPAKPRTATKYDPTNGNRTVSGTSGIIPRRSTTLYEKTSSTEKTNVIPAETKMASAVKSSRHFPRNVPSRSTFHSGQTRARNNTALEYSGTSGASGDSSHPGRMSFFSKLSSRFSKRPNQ

Target: GST–14-3-3ε (Drosophila melanogaster) (UniProt P92177)
Experiment: affinity purification with mass spectrometry; recombinant GST–14-3-3ε on glutathione beads, pulldown from ovary or S2 cultured cell extract; gel lanes digested with trypsin, Velos LTQ Orbitrap, MASCOT; only the target purified

binding: binds
Molecule: Par-1 (from UniProt Q963E5 1-1058)

binding: binds
B1: endogenous Ncd protein (protein, UniProt P20480 1-700)
chain: MESRLPKPSGLKKPQMPIKTVLPTDRIRAGLGGGAAGAGAFNVNANQTYCGNLLPPLSRDLNNLPQVLERRGGGARAASPEPMKLGHRAKLRRSRSACDINELRGNKRTAAAPSLPSIPSKVSRLGGALTVSSQRLVRPAAPSSITATAVKRPPVTRPAPRAAGGAAAKKPAGTGAAASSGAAAAAPKRIAPYDFKARFHDLLEKHKVLKTKYEKQTEDMGELESMPQQLEETQNKLIETESSLKNTQSDNECLQRQVKQHTAKIETITSTLGRTKEELSELQAIHEKVKTEHAALSTEVVHLRQRTEELLRCNEQQAAELETCKEQLFQSNMERKELHNTVMDLRGNIRVFCRIRPPLESEENRMCCTWTYHDESTVELQSIDAQAKSKMGQQIFSFDQVFHPLSSQSDIFEMVSPLIQSALDGYNICIFAYGQTGSGKTYTMDGVPESVGVIPRTVDLLFDSIRGYRNLGWEYEIKATFLEIYNEVLYDLLSNEQKDMEIRMAKNNKNDIYVSNITEETVLDPNHLRHLMHTAKMNRATASTAGNERSSRSHAVTKLELIGRHAEKQEISVGSINLVDLAGSESPKTSTRMTETKNINRSLSELTNVILALLQKQDHIPYRNSKLTHLLMPSLGGNSKTLMFINVSPFQDCFQESVKSLRFAASVNSCKMTKAKRNRYLNNSVANSSTQSNNSGSFDK

binding: binds
B2: 14-3-3ζ (protein, UniProt P29310 1-248)
chain: MSTVDKEELVQKAKLAEQSERYDDMAQAMKSVTETGVELSNEERNLLSVAYKNVVGARRSSWRVISSIEQKTEASARKQQLAREYRERVEKELREICYEVLGLLDKYLIPKASNPESKVFYLKMKGDYYRYLAEVATGDARNTVVDDSQTAYQDAFDISKGKMQPTHPIRLGLALNFSVFYYEILNSPDKACQLAKQAFDDAIAELDTLNEDSYKDSTLIMQLLRDNLTLWTSDTQGDEAEPQEGGDN
